# In patent publication US20040121965A1, “Method of treating resistant tumors” (Wyeth Holdings Corporation, priority 2002, published 2004):
# System: MCF7
# Assay: Cell survival assay (SRB), MCF7
# Type: cell-based
# Conditions: Homo sapiens, 72 h; MCF7, breast; 3 days, SRB staining
# Procedure: 2.2. Cell Survival Assay: Standard Pharmacological Test Procedure. […] Compounds are incubated with cells for 3 days.
structure (smiles),measurement,value
"CC(=O)O[C@H]1C(=O)[C@@]2(C)[C@H]([C@H](OC(=O)c3ccccc3)[C@]3(O)C[C@H](OC(=O)[C@H](O)[C@@H](NC(=O)c4ccccc4)c4ccccc4)C(C)=C1C3(C)C)[C@]1(OC(C)=O)CO[C@@H]1C[C@@H]2O [paclitaxel, reference compound]",IC50,8.1 ± 1.9 nM
